Source: patent publication US4717715 (dated 1988)

Assay: general procedure: Boc solid-phase peptide synthesis; benzhydrylamine resin (BHA); Boc-Arg(Tos)-O-Bzl-Resin for acids; DCC/HBT; DMAP for Pmp(4-MeBzl)
Details: whole synthesis, HPLC (0.1% TFA/CH3CN), scale of the general procedure 1.0 mmol, one disulfide bridge, sequence written open
For “Pmp(4-MeBzl)-D-Tyr(Et)-Phe-Val-Asn-Cys(4-MeBzl)-Arg(Tos)-D-Arg(Tos)-BHA”, the “final purity (method not given)” value was 98% pure. In the case of “Pmp(4-MeBzl)-D-Tyr(Et)-Phe-Val-Asn-Cys(4-MeBzl)-D-Arg(Tos)-Arg(Tos)-BHA”, the “final purity (method not given)” value is reported as 96-97% pure. With “Pmp-(4-MeBzl)-D-Tyr(Et)-Phe-Val-Asn-Cys(4-MeBzl)-Arg(Tos)-Lys(ClZ)-BHA” the “final purity (method not given)” value was 96-97% pure. With “Pmp-(4-MeBzl)-D-Tyr(Et)-Phe-Val-Asn-Cys(4-MeBzl)-Lys(ClZ)-Arg(Tos)-BHA” the “final purity (method not given)” value was 98-99% pure. With “Pmp-(4-MeBzl)-D-Tyr(Et)-Phe-Val-Asn-Cys(4-MeBzl)-N-MeArg-(Tos)-Arg(Tos)-BHA” the “final purity (method not given)” value was 97-98% pure.

Same assay, conditions: whole synthesis, scale 1.0 mmol, one disulfide bridge, sequence written open
Substance “Pmp-(4-MeBzl)-D-Tyr(Et)-Phe-Val-Asn-Cys(4-MeBzl)-D-Arg(Tos)-D-Arg(Tos)-BHA” has a crude mass of over 1.0 g.
